Test results: publication doi:10.1101/2022.02.14.480308

What follows are substances tested against SctG-sfGFP (Yersinia enterocolitica pilotin SctG fused to sfGFP) (Yersinia enterocolitica) (UniProt Q56851) (assay: affinity purification with mass spectrometry).

Substance	binding
SecF (from UniProt A0ACH1CFQ5)	binds
large export apparatus protein SctV (from UniProt P0C2V3)	binds
prokaryotic tubulin homolog FtsZ (from UniProt A0ACH1CEN6)	binds

Results are given in words; binding and its absence hold for the method and conditions named. Binding seen in cells or lysates may run through a third protein. These calls come from enrichment with a bait or labelling near it, and not all partners need be listed.
